Measured values taken from paper PMC11910115.
No constants are given. Whether binding was seen depends on the method and setting.

Amino acid sequences for entries named in this document (tags omitted). Residues count along the entry.
UniProt Q9UBK9, residues 2-157: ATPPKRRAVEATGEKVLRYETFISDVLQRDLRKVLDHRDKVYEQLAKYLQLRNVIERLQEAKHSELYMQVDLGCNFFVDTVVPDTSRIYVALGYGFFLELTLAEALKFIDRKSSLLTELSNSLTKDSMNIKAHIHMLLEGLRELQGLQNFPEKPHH

Biological target: 6×His-sfGFP-UXT (human) (UniProt Q9UBK9)
Assay: condition: only with an elevated concentration of SDS; native gel or EMSA; purified recombinant UXT proteins on PAGE with a serial gradient of SDS concentrations for denaturation (elevated SDS / denaturing conditions); both purified

“6×His-sfGFP-UXT (from UniProt Q9UBK9 2-157)” was tested, and the binding was “no binding”.
